Measurements taken from article PMC12540644.

Experiments:
[1] = target: T1, GST–14-3-3β (mouse) (UniProt Q9CQV8); assay: pull-down; GST–14-3-3β on Glutathione Sepharose 4B; EGFP-tagged proteins in HeLa cell lysates; immunoblotting; only the target purified
T1 sequence: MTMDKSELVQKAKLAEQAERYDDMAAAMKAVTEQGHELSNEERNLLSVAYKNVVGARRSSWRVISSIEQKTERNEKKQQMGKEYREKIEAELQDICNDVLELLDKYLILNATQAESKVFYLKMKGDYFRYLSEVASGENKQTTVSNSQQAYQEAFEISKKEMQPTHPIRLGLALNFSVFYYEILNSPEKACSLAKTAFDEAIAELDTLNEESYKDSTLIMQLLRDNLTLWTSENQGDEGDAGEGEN

[2] = target: T2, KGN–14-3-3β (mouse) (UniProt Q9CQV8); assay: split reporter; BiFC (Kusabira-Green) between KGN–14-3-3β and KGC–A/B/C/DA-Raf in living MDCK cells, 48 h after transfection, 37°C
T2 sequence: T1 sequence

Row | binding [1] | binding [2] | Substance
1 | no binding | – | EGFP–DA-Raf (mouse)
2 | – | binds weakly | KGC–DA-Raf (mouse)

Results are given in words; binding and its absence hold for the method and conditions named. In cells and extracts the contact can be indirect. For some assays here: A result given as binding can be weak or reduced; the word gives no strength. For some assays here: Tags and fused reporters may be left off the sequences shown.
